The values that follow are results of earlier work, collected in patent publication EP2862852B1, “Urea derivatives for the protection of stem cells” (Symrise AG, priority 2013, dated 2015).

For the data set the following is noted: water (20° dH) at 20 °C; solid active agent; cited from earlier work.

On to `Nc1nc2c(ncn2COCCO)c(=O)[nH]1` [Acyclovir, 2-Amino-1,9-dihydro-9-((2-hydroxyethoxy)methyl)-6H-Purin-6-one], for which the solubility in water result was “less than 5 g/L”.
